From article PMC11348715 (Chemical Science, 2024)

Assay: Caco-2 permeability assay
Format: in vitro ADME
Details: human

Papp B→A at 10 µM (Caco-2): 12.2 ×10⁻⁶ cm/s | efflux ratio at 10 µM (Caco-2, efflux ratio (ER), Caco-2, donor concentration 10 μM): 7.68
SMILES: C[C@H]1O[C@@H](O[C@H]2[C@@H](O)C[C@H](O[C@H]3[C@@H](O)C[C@H](O[C@H]4CC[C@@]5(C)[C@H](CC[C@@H]6[C@@H]5C[C@@H](O)[C@]5(C)[C@@H](C7=CC(=O)OC7)CC[C@]65O)C4)O[C@@H]3C)O[C@@H]2C)C[C@H](O)[C@@H]1O [digoxin]
